Measured values: the supplement of paper PMC5949888
Most values lie at the floor of the assay. Slopes are relative: functional sequences can read slightly below zero.

test system: Saccharomyces cerevisiae PS128 hsf1 delta, HSF1(1-493) fusion; assay: growth estimate (transactivation domain function in HSF1 fusion, heat-shock survival) (a.u. (slope of normalised read count over time)); higher = stronger growth at 37°C, i.e. more transactivation activity; conditions: library: random library
Protocol: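 Random 60-nt DNA library encoding peptides of up to 20 aa, fused to the C-terminus of yeast HSF1 residues 1-493 (C-terminal TAD deleted) and expressed from the native HSF1 promoter on a CEN plasmid in hsf1-deleted S. cerevisiae PS128. Cells were selected at 37°C on -trp 5-FOA plates for 0, 2, 4, 6 and 8 days and amplicons were sequenced. Growth estimate is the slope of a robust linear fit of total-sum-normalised read counts (normalised to the first time point) over time, using at least 2 replicates. Sequences are classed functional (TAD activity) above a threshold of -0.13, set from stop-codon control sequences.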

Row | Substance | growth estimate
1 | RADTFSRTYWFGVICLG | < -0.25
2 | QSPTVGEGSITIF | < -0.25
3 | SRYLIGTAQLPFTTLK | < -0.25
4 | QICINTSA | < -0.25
5 | PVQLQILSRVNTYPPACICC | < -0.25
6 | GRTSLPAHGVRSPTCDGGRP | < -0.25
7 | GDTILTDHVSLARRLRVGDV | < -0.25
8 | YIGIINSAARS | < -0.25
9 | IPLNSINTVQLKKCGHVGAK | < -0.25
10 | IALVPGFIYRSFVNLRPDVT | < -0.25
11 | TTPSARAPRGGFRFQ | < -0.25
12 | ETCENPL | < -0.25
13 | DSARDEKWNVSERLRLASLR | 0.0615
14 | RYWHIKDLLRRRGLHSGLGK | < -0.25
15 | FAEWLFSQKRSPGRALWETD | 30.3
16 | RVIGGTGDTGYN | < -0.25
17 | GPAVSSAGVGGSGVDTGVLP | < -0.25
18 | WRANIRSEPSLEAGPLLNAL | < -0.25
19 | AVQVMSLDPWIVALSELLIS | < -0.25
20 | QYHLNACNLPL | < -0.25
21 | MFGWVKVLPLHMRCT | < -0.25
22 | TRMRGLRRHPWEHPDDGLRG | < -0.25
23 | FIVLV | < -0.25
24 | TVRPSY | -0.246
25 | LIVDPTQTACQSPL | < -0.25

Row | Substance | growth estimate
26 | EYGIADRT | < -0.25
27 | HFQTQMITLQGFLTVWRNNN | < -0.25
28 | RRGDFDLTTN | < -0.25
29 | GADCIG | -0.202
30 | DCTYCMGYRAVRAS | < -0.25
31 | GARLAT | < -0.25
32 | QGIFASDNHGV | < -0.25
33 | HRTFGANNRKGAQSGSAPGR | < -0.25
34 | DKGGG | < -0.25
35 | EKSLW | < -0.25
36 | IKK | < -0.25
37 | GSWTTSLWC | < -0.25
38 | VRALLLYGMSV | < -0.25
39 | GISKSEPGVELIQVEDRHGP | < -0.25
40 | YACLGSN | < -0.25
41 | DRRWIIAKCVSPQYPDVPFS | < -0.25
42 | YHAQRLCTQFVVMGRLRVL | < -0.25
43 | TMGTADALEMQRGWVESMRI | < -0.25
44 | FRVTAPRGNADESMDRITRL | < -0.25
45 | RVSTSRPLVFRKLVRRWSER | < -0.25
46 | MSN | < -0.25
47 | STLHRPLLIRYSTIPELQLA | -0.248
48 | REMIH | < -0.25
49 | RSLRNIGP | < -0.25
50 | LVTCRYVAPPIHWTCARSR | < -0.25

Row | Substance | growth estimate
51 | MQNRAGPGGVRHTGLLVNPY | < -0.25
52 | RLFCYNAPS | < -0.25
53 | MKALVVHAGRGQLDI | < -0.25
54 | DSYSL | < -0.25
55 | SETPSCASRAGK | -0.241
56 | PLGRKP | < -0.25
57 | TKRYLPW | < -0.25
58 | WHAG | < -0.25
59 | TPVLGH | -0.245
60 | RSRCRQRTRWTEIPRETCLM | < -0.25
61 | SGRMRSTKINPGLHRLKADV | < -0.25
62 | KLEPQAYYKS | < -0.25
63 | SVKS | < -0.25
64 | IGMRFRPGRMGSERCRPAAT | < -0.25
65 | PLERRGT | < -0.25
66 | NMQSSTFMAKIT | < -0.25
67 | SCWGTT | < -0.25
68 | YSFTLPYAL | 5.9
69 | EKADGNEEGDTATINCQALD | < -0.25
70 | LHEQYSPTTGMLYGRHICPI | < -0.25
71 | AGVSCKWDEVGTDVVLWMVR | < -0.25
72 | PRKSSMGVSSCEFAEKCCAR | < -0.25
73 | AGDLTGIYHC | < -0.25
74 | ILTVEFHHVPRQASVGFRGQ | < -0.25
75 | GSGT | < -0.25

Reformatted in CSV form: entries from further up.
Row,Substance,growth estimate
55,SETPSCASRAGK,-0.241
56,PLGRKP,< -0.25
57,TKRYLPW,< -0.25
58,WHAG,< -0.25
59,TPVLGH,-0.245
60,RSRCRQRTRWTEIPRETCLM,< -0.25
61,SGRMRSTKINPGLHRLKADV,< -0.25
62,KLEPQAYYKS,< -0.25
63,SVKS,< -0.25
64,IGMRFRPGRMGSERCRPAAT,< -0.25
65,PLERRGT,< -0.25
66,NMQSSTFMAKIT,< -0.25
67,SCWGTT,< -0.25
68,YSFTLPYAL,5.9
69,EKADGNEEGDTATINCQALD,< -0.25
70,LHEQYSPTTGMLYGRHICPI,< -0.25
71,AGVSCKWDEVGTDVVLWMVR,< -0.25
72,PRKSSMGVSSCEFAEKCCAR,< -0.25
73,AGDLTGIYHC,< -0.25

Remaining list, next part

Row | Substance | growth estimate
76 | RDLGVKRRIALPIRHGALEC | 0.0112
77 | RSDRNKF | < -0.25
78 | GGHCFQDTMWLR | < -0.25
79 | FMSVRL | < -0.25
80 | KTLIPRAADHGLRIVLA | < -0.25
81 | ITLRCRAS | < -0.25
82 | AGDQCQDL | < -0.25
83 | CGVATRV | < -0.25
84 | SYKTVLPVVVMTARFEPRTR | < -0.25
85 | VLLRQSSGYRFAGR | < -0.25
86 | RRMRLFALD | < -0.25
87 | VITSEYVMLE | < -0.25
88 | HDSAVSLGALTE | < -0.25
89 | WTLPLVVRSC | < -0.25
90 | WRGRECTCN | < -0.25
91 | NLSTTDGDR | < -0.25
92 | VRRER | < -0.25
93 | RYITT | < -0.25
94 | TVITIAHR | < -0.25
95 | EMTVQRRGPQQSTYVIRTTQ | < -0.25
96 | GGPSTGVLVN | < -0.25
97 | HWNIIRVEFISGGHDYPTPC | < -0.25
98 | RVCHDFNLTAFVLRHCCEKG | < -0.25
99 | SAGGC | < -0.25

Individual results from above.
growth estimate with TVITIAHR is entered as < -0.25
growth estimate with TTPSARAPRGGFRFQ is entered as < -0.25
